# Measured values reported in paper PMC5608341, “The human VGF-derived bioactive peptide TLQP-21 binds heat shock 71 kDa protein 8 (HSPA8)on the surface of SH-SY5Y cells” (PLoS ONE, 2017).
# Tested on: Stress-70 protein (HSPA9/mortalin)
# Assay: Avidin-agarose affinity chromatography with biotin-TLQP-21, MASCOT MS/MS identification; HSPA9
# Type: binding, human
# Conditions: TLQP-21 as bait
substance,measurement,setting,value
"Biotin-TLQPPSALRRRHYHHALPPSRC [biotin-TLQP-21, amino-terminally biotinylated human TLQP-21 containing an extra cysteine residue at the C-terminus]",MASCOT score,~70kDa band after affinity chromatography of SH-SY5Y cell homogenates,431
same,Sequence coverage,~70kDa band,12.5

# Where no end group is shown, it is not given here. The star is where a group is joined. Biotin = O=C1N[C@H]2[C@H](CS[C@H]2CCCCC(=O)*)N1
